# Assay results taken from PMC5996148.
# Protein sequences, listed by entry. Tags and fused reporters are not part of them.
# UniProt P30530, whole entry: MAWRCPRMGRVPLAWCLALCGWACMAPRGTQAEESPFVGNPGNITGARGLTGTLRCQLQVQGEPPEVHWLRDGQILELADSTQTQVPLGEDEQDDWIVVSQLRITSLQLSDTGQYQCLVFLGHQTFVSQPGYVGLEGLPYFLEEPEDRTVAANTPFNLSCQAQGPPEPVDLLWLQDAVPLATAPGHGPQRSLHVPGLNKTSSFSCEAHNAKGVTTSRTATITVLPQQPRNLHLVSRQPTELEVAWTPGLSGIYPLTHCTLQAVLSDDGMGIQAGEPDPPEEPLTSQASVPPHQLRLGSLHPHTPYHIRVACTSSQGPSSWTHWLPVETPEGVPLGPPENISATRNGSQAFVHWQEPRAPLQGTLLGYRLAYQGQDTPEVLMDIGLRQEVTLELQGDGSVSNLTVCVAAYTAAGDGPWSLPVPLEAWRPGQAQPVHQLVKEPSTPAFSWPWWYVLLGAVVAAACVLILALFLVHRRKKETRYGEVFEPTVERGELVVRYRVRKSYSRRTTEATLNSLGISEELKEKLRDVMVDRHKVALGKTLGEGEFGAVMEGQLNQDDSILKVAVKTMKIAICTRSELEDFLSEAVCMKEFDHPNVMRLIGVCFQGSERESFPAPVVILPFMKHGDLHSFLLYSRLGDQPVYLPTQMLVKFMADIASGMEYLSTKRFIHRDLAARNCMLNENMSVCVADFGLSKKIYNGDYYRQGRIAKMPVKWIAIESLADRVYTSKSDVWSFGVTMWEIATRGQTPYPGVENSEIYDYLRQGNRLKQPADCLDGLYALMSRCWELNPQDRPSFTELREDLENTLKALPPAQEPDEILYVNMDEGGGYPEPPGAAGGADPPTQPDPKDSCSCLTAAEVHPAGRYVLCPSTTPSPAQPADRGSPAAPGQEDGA
# Some of the results follow. For some of these results: The source does not settle which construct or isoform was used.
# Key:
# Experiment in all cases: protein microarray (ProtoArray v5.0), streptavidin-Alexa Fluor 647
# Conditions in all cases: 3'-biotin; 20 mM Tris (pH 7.5), 5 mM MgCl2, 100 mM KCl, 0.1% Tween-20, A/T-rich and random oligonucleotide blockers; temperature not stated; high values mean tight binding
# ATF3 (human) = system: ATF3 (human)
# ATG10 (human) = system: ATG10 (human)
# ATG4A (human) = system: ATG4A (human)
# [1] = system: ATP-dependent RNA helicase DHX8 (human)
# ATP5H (human) = system: ATP5H (human)
# ATP5O = molecular target: T1, ATP5O (UniProt P48047)
# T1 sequence: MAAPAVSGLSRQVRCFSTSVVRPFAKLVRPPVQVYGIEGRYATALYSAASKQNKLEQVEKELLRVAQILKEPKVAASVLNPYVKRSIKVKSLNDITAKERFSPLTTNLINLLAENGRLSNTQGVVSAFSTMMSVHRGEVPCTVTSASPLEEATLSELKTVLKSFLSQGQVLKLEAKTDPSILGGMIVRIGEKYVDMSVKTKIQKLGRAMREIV
# ATPBD4 (human) = system: ATPBD4 (human)
# ATXN3 (human) = system: ATXN3 (human)
# AXL = AXL (UniProt P30530)
# [2] = system: Acyl carrier protein, mitochondrial (human)
sequence,measurement,setting,value
GGTGACAGGGGTATGGGGAGGGG [G4-2 biotinylated (Ct1)],binding signal,ATF3 (human),-0.36 z-score
same,binding signal,ATG10 (human),-0.388 z-score
same,binding signal,ATG4A (human),-0.404 z-score
same,binding signal,[1],3.49 z-score
same,binding signal,ATP5H (human),-0.361 z-score
same,binding signal,ATP5O,3.52 z-score
same,binding signal,ATPBD4 (human),-0.372 z-score
same,binding signal,ATXN3 (human),-0.39 z-score
same,binding signal,AXL,-0.39 z-score
same,binding signal,[2],-0.387 z-score
